Data reported in the supplement of paper PMC10849652.
The list shows a part of the results.

Amino acid sequences for entries named in this document (tags omitted). A change or cut given only in a name is not applied to a line headed by its entry.
UniProt Q9NV79: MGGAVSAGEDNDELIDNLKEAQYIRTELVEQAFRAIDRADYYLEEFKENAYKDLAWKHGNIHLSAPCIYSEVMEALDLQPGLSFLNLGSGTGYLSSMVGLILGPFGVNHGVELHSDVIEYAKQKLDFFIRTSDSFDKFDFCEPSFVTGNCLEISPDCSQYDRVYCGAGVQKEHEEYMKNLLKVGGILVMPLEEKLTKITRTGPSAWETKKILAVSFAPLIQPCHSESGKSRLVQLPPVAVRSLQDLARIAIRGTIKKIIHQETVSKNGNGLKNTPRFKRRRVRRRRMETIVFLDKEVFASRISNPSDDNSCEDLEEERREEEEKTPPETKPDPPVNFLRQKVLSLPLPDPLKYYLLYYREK
UniProt P56589: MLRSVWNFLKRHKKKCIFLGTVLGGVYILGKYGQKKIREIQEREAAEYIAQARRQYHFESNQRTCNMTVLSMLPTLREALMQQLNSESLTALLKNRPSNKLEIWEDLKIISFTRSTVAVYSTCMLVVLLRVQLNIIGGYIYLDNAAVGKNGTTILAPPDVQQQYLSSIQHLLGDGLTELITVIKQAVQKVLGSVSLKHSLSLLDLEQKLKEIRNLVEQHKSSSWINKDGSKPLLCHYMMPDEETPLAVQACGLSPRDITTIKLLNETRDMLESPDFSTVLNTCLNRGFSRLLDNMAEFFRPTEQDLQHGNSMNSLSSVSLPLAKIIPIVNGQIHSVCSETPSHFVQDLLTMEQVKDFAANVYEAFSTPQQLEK
UniProt O00623: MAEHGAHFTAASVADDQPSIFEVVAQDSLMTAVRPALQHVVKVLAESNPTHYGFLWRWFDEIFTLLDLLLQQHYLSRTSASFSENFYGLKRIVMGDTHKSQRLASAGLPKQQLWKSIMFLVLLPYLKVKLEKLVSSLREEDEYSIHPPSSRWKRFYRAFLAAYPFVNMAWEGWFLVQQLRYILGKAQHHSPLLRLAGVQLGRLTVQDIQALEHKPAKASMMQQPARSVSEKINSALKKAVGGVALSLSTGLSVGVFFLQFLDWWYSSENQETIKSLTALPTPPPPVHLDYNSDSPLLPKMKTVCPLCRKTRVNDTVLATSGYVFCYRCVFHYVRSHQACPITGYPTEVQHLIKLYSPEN
UniProt Q9UKK3: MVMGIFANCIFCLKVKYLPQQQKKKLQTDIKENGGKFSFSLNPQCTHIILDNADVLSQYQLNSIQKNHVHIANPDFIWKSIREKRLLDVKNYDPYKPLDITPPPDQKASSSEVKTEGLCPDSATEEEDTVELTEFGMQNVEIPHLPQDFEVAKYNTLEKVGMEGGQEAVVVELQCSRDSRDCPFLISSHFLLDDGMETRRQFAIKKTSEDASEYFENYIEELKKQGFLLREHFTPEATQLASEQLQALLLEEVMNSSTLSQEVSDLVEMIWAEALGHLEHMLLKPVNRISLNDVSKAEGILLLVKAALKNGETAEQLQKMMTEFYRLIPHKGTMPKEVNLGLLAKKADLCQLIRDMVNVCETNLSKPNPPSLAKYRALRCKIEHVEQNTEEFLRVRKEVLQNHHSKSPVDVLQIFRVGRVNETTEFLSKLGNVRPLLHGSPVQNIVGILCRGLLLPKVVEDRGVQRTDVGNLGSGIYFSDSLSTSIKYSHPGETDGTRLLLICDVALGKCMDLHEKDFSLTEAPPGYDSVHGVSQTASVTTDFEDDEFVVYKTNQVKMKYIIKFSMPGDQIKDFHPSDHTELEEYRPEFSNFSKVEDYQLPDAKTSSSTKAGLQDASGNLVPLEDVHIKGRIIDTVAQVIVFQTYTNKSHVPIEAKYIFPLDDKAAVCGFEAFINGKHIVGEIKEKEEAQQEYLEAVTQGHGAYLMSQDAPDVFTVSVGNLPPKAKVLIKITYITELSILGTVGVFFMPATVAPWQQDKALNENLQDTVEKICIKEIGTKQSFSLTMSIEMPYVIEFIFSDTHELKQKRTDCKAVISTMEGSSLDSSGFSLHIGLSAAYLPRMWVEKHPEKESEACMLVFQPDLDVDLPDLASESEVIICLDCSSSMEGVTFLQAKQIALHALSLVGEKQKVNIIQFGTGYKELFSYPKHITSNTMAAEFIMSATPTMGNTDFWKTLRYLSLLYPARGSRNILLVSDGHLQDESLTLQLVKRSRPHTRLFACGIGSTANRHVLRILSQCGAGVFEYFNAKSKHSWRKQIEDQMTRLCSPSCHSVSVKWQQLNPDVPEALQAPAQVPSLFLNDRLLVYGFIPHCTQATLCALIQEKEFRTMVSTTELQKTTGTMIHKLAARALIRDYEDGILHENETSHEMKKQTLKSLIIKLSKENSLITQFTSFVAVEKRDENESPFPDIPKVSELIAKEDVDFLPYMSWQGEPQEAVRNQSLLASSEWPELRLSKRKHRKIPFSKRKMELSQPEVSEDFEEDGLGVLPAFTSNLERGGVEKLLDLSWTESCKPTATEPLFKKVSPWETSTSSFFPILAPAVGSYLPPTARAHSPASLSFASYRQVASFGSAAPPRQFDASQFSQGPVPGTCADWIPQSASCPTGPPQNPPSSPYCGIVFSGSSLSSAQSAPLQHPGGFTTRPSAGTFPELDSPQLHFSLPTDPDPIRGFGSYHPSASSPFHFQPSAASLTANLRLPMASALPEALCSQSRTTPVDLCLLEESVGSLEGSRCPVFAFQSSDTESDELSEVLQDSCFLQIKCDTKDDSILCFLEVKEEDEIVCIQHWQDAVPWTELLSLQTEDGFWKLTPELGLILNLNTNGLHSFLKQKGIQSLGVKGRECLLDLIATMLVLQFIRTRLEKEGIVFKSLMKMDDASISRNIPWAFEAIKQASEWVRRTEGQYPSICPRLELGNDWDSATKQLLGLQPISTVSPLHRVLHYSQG
UniProt Q86U86, whole entry, looked up: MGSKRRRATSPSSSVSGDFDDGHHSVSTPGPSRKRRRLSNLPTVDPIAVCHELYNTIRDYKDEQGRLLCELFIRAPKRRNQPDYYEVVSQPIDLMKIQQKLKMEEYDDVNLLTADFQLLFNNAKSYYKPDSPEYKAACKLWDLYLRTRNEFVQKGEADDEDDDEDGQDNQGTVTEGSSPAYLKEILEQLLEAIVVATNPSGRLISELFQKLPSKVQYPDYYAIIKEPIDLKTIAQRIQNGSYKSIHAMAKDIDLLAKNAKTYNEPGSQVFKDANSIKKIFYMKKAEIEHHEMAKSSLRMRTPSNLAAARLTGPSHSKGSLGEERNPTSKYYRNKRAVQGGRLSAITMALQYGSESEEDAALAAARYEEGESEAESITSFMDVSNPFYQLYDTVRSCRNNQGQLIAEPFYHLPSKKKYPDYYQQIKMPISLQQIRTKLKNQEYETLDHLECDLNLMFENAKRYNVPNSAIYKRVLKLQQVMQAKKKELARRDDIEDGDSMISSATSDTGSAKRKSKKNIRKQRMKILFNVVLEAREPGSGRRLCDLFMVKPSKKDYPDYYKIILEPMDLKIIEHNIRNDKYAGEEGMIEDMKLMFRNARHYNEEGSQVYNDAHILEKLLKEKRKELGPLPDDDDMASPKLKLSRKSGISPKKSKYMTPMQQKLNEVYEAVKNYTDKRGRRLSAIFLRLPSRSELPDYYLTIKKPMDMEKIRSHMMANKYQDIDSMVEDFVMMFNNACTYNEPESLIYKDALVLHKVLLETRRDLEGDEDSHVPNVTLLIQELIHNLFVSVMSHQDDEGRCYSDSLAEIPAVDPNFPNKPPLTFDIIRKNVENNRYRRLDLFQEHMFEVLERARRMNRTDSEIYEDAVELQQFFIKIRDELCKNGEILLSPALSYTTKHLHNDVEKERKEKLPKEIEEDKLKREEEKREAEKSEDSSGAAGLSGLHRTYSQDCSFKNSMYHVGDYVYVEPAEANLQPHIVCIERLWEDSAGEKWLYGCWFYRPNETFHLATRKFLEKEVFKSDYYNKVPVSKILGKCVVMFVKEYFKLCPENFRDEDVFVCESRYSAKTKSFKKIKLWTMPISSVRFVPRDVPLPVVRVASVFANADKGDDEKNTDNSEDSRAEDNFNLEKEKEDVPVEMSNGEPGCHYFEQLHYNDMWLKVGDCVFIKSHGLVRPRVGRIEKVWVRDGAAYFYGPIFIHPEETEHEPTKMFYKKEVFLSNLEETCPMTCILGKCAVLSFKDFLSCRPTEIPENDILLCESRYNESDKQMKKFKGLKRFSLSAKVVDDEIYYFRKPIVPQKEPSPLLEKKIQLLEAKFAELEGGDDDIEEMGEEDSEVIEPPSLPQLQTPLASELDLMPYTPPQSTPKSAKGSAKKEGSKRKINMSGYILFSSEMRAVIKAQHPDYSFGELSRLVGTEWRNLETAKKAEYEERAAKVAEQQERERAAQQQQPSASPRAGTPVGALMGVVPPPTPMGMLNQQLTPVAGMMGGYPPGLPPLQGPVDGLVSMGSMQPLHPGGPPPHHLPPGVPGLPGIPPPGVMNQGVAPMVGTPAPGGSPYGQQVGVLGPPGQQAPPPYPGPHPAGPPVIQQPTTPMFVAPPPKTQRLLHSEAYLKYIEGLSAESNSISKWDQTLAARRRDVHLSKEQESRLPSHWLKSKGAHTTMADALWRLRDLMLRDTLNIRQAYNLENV
UniProt Q9H6A9: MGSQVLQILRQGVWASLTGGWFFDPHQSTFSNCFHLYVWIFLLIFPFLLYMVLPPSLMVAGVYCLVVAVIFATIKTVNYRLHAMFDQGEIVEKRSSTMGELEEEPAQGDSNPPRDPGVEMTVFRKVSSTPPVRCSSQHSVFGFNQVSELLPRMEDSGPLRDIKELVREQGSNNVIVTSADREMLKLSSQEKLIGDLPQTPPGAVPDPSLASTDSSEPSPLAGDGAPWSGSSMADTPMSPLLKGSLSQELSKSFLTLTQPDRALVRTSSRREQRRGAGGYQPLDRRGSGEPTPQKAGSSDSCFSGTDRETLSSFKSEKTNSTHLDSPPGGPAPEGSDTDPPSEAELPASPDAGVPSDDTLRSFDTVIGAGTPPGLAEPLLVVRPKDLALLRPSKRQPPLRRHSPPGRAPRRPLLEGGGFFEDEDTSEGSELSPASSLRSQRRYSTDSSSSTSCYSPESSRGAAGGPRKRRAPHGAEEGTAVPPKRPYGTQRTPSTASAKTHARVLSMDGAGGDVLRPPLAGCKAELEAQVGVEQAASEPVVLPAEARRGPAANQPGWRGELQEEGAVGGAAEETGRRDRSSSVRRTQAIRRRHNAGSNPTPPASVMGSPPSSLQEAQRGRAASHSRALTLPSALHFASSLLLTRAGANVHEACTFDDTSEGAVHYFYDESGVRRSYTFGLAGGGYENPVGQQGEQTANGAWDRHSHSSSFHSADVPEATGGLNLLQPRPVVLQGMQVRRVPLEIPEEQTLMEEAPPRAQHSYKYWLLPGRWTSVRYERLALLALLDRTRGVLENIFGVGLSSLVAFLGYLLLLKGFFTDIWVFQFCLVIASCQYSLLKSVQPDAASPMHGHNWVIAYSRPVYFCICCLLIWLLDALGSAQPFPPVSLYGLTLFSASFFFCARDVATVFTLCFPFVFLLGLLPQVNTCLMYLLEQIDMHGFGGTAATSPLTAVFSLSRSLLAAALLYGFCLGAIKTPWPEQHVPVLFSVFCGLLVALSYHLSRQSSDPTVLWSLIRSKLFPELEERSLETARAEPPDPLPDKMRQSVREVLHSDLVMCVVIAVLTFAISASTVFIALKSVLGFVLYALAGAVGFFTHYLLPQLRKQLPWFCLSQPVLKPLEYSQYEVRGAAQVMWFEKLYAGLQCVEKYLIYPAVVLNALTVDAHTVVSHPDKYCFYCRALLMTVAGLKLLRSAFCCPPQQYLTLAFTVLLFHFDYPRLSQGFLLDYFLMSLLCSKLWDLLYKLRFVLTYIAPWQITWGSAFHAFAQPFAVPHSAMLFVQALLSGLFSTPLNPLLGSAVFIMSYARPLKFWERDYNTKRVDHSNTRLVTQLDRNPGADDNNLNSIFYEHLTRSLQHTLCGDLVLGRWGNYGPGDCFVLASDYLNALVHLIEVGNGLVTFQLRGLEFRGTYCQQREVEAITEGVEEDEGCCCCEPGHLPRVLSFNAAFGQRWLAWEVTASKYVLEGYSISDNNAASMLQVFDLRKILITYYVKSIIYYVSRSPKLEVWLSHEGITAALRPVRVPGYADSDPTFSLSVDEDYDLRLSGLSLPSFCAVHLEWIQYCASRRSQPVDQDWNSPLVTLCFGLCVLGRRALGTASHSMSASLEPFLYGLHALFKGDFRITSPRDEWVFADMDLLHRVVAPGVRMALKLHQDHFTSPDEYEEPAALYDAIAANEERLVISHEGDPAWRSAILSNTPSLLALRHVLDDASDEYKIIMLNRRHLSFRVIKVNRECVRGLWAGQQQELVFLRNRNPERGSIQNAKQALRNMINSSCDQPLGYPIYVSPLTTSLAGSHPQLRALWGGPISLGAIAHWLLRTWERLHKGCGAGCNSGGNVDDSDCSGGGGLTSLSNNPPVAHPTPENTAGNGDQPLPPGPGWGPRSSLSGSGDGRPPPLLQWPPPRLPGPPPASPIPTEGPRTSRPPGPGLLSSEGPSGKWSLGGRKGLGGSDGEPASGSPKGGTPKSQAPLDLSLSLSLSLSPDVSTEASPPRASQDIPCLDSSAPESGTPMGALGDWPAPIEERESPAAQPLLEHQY

Key:
Experiment in all cases: log2 fold change, soluble protein after heating vs DMSO (PISA); higher = thermal stabilisation; K562 lysate, 10 uM; active = over 0.2 and 3.5 SD of the protein, either way, in both replicates (recomputed)
[1] = compound: C1=CC2=NC=CN=C2C=C1/C=C/3\C(=O)NC(=O)S3
Method in brief: (§1)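 K562 pellets were dounce-homogenised in PBS pH 7.4 containing 1 mM MgCl2, and the crude extract, at 1 mg/mL protein, was exposed to 10 μM compound for 30 min. Aliquots were heated for 3 min across 48°C-58°C, pooled, brought to 0.5% NP-40 at 4°C and spun at 21,000xg for 90 min, with the supernatant taken as soluble protein. TMTpro 16plex LC-MS/MS with equalised channel sums quantified that protein. Values are log-two fold changes in thermal stability relative to solvent controls, taken from duplicates.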

[2] = compound: C1=CC=C(C=C1)C2=NC(=C(N2)C3=CC=NC=C3)C4=CC(=C(C=C4)Cl)O
Method in brief: as §1

[3] = compound: C1CCN(C1)C(=O)NC2=CC=CC(=C2)NC3=NC=C(C(=N3)NCCC4=CN=CN4)Br
Method in brief: as §1

[4] = compound: C1CN(CCC1(CC2=CC=C(C=C2)Cl)N)C3=NC=NC4=C3C=CN4
Method in brief: as §1

IRAK-1-4 Inhibitor I = compound: C1COCCN1CCN2C3=CC=CC=C3N=C2NC(=O)C4=CC(=CC=C4)[N+](=O)[O-] [IRAK-1-4 Inhibitor I]
Method in brief: as §1

ibrutinib = compound: C=CC(=O)N1CCC[C@@H](n2nc(-c3ccc(Oc4ccccc4)cc3)c3c(N)ncnc32)C1 [ibrutinib]
Method in brief: as §1

[5] = compound: CC(=O)c1cnc2ccc(-c3cc(Cl)c(O)c(Cl)c3)nc2c1N[C@H]1CC[C@H](CN(C)C)CC1
Method in brief: as §1

ralimetinib = compound: CC(C)(C)Cn1c(N)nc2ccc(-c3[nH]c(C(C)(C)C)nc3-c3ccc(F)cc3)nc21 [ralimetinib]
Method in brief: as §1

[6] = compound: CC(C)(O)CC(=O)NCCn1ccc2ncnc(Nc3ccc(Oc4cccc(C(F)(F)F)c4)c(Cl)c3)c21
Method in brief: as §1

[7] = compound: CC1=C(C(CC(=O)N1)C2=CC=C(C=C2)C(F)(F)F)C(=O)NC3=C(C=C4C(=C3)C=NN4)F
Method in brief: as §1

[8] = compound: CC1=C(C=C(C=C1)NC(=O)C2=CC(=CC=C2)N(C)C)NC(=O)C3=CC=C(C=C3)O
Method in brief: as §1

[9] = compound: CC1=CC=C(C=C1)SC2=C3C=C(SC3=CN=C2)C(=O)N
Method in brief: as §1

erlotinib = compound: C#Cc1cccc(Nc2ncnc3cc(OCCOC)c(OCCOC)cc23)c1 [erlotinib]
Method in brief: as §1

[10] = compound: C1=CC(=CC=C1C2=NC3=C(N2)C=C(C=C3)C(=O)N)OC4=CC=C(C=C4)Cl
Method in brief: as §1

[11] = compound: CC(C)C1=C2N=C(C=C(N2N=C1)NCC3=CC=CC=C3)NCCCCCCN
Method in brief: as §1

[12] = compound: CC1=C(C2=C(C=C1)C(=O)C3=CC=CC=C3N2CCCN)C
Method in brief: as §1

[13] = compound: C/C(=N\NC(=O)C1=CC(=CC=C1)S(=O)(=O)N2CCOCC2)/C3=C(C=CC(=C3)Cl)O
Method in brief: as §1

[14] = compound: C1=CC2=C(C=CC(=C2)/C=C\3/C(=O)NC(=NCC4=CC=CS4)S3)N=C1
Method in brief: as §1

[15] = compound: C1=CC=C2C(=C1)C3=NNC4=CC=CC(=C43)C2=O
Method in brief: as §1

[16] = compound: CC1=C(C=C(C=C1)NC(=O)C2=CC(=CC=C2)C(C)(C)C#N)NC3=CC4=C(C=C3)N=CN(C4=O)C
Method in brief: as §1

Measured: log2 fold change

PFN1 (UniProt I3L3D5)
inactive: [1] 0.054 | [2] 0.045 | [3] 0.009 | [4] 0.03 | IRAK-1-4 Inhibitor I 0.005 | ibrutinib -0.045 | [5] -0.053 | ralimetinib 0.045 | [6] -0.033 | [7] -0.013 | [8] 0 | [9] 0.031

PEX6 (UniProt Q13608)
inactive: erlotinib -0.116 | [10] -0.275 | [1] 0.192 | [3] 0 | [4] 0.033 | ibrutinib 0.365 | [11] -0.03 | [12] 0.086

PER2 (UniProt O15055)
inactive: [13] -0.09 | [14] -0.03 | [15] 0.091

PDCD7 (UniProt Q8N8D1)
inactive: [3] -0.1 | [4] 0.208 | [16] -0.297

PDE3B (UniProt Q13370)
inactive: [2] -0.037 | IRAK-1-4 Inhibitor I 0.005 | ralimetinib 0.065 | [6] 0.058 | [12] -0.062 | [8] -0.064

PCMTD2 (UniProt Q9NV79)
inactive: erlotinib 0.11 | [13] -0.083 | [10] -0.04 | [14] -0.285 | [15] 0.021 | [3] -0.062 | [4] 0.32 | [11] -0.264 | [16] -0.019

PEX7 (UniProt O00628)
inactive: [13] 0.043 | [14] 0.012 | [1] 0.026 | [2] -0.432 | [15] -0.167 | [3] -0.02 | [4] -0.017 | IRAK-1-4 Inhibitor I 0.036 | ibrutinib -0.063 | [5] 0.001 | ralimetinib -0.113 | [6] 0 | [12] -0.132 | [8] -0.05 | [9] -0.026

PARP12 (UniProt Q9H0J9)
inactive: erlotinib 0.172 | [10] -0.075 | [1] -0.213 | [2] -0.042 | [3] -0.187 | [4] 0.076 | IRAK-1-4 Inhibitor I 0.025 | ibrutinib -0.043 | [5] -0.076 | ralimetinib 0.017 | [6] -0.072 | [11] 0.003 | [12] 0.022 | [16] -0.235 | [8] -0.069 | [9] 0.047

PCGF1 (UniProt Q9BSM1)
inactive: erlotinib 0.073 | [13] -0.035 | [10] 0.138 | [14] 0 | [15] -0.198 | [3] 0.009 | [4] 0.099 | [11] 0.027 | [12] -0.056

PEMT isoform 2 (UniProt Q9UBM1)
inactive: [13] 0.065 | [14] 0.249 | [15] -0.201 | [5] 0.257 | [9] 0.076

PEX3 (UniProt P56589)
inactive: [3] -0.056 | [4] 0.001 | [5] -0.037 | [12] -0.035 | [16] -0.031 | [9] -0.116

PCGF3 isoform 2 (UniProt Q3KNV8)
inactive: erlotinib 0 | [10] 0.01 | [11] 0.085 | [16] -0.032

PECR (UniProt Q9BY49)
inactive: [3] -0.004 | [4] 0.056

PER1 (UniProt O15534)
inactive: [12] -0.087 | [16] 0.126

PFN3 (UniProt P60673)
inactive: [13] -0.231 | [14] -0.078 | [15] -0.162 | [3] -0.041 | [4] 0.155 | [5] 0.042 | [7] -0.02 | [16] -0.03 | [9] -0.02

PCM1 isoform 5 (UniProt Q15154)
inactive: [3] 0.103 | [4] 0.018 | [16] 0.079

PEX12 (UniProt O00623)
inactive: [5] 0.018 | [9] 0.005

PDE6D (UniProt O43924)
inactive: erlotinib -0.162 | [10] -0.013 | [1] 0.021 | [2] -0.046 | [3] 0.185 | [4] 0 | IRAK-1-4 Inhibitor I 0.064 | ibrutinib -0.128 | [5] -0.084 | ralimetinib 0.04 | [6] 0.008 | [11] 0.038 | [7] -0.154 | [12] -0.068 | [8] 0.055 | [9] 0.025

PARP4 (UniProt Q9UKK3)
inactive: erlotinib 0.066 | [10] -0.02 | [1] 0.063 | [3] -0.115 | [4] 0.058 | ibrutinib 0.012 | [5] -0.05 | [11] 0.092 | [7] 0.091 | [12] 0.026 | [16] -0.084 | [9] -0.156

PGD (UniProt K7EPF6)
inactive: [1] -0.147 | ibrutinib 0.108 | [5] -0.21 | [7] -0.017 | [16] -0.05 | [9] -0.34

PBRM1 (UniProt Q86U86)
inactive: erlotinib 0.185 | [10] 0.131 | [1] -0.062 | [2] 0.056 | [3] -0.076 | [4] -0.05 | IRAK-1-4 Inhibitor I -0.094 | ibrutinib 0.003 | [5] -0.004 | ralimetinib 0.001 | [6] 0.031 | [11] 0.033 | [7] -0.047 | [12] 0.027 | [16] 0.063 | [8] 0.072 | [9] -0.033

PCNX3 (UniProt Q9H6A9)
inactive: [13] -0.024 | [14] 0.06 | [1] 0.044 | [15] 0.027 | [3] -0.095 | [4] 0.07 | ibrutinib 0.008 | [5] -0.01 | [12] -0.218 | [16] -0.051 | [9] -0.049

PDIK1L (UniProt Q8N165)
inactive: [2] 0.053 | IRAK-1-4 Inhibitor I 0.189 | ralimetinib -0.115 | [6] -0.153 | [12] 0.035 | [8] -0.036

PDCD6 isoform 2 (UniProt O75340)
inactive: [2] 0.006 | IRAK-1-4 Inhibitor I 0.015 | ralimetinib 0.025 | [6] -0.119 | [8] -0.021

Taken from the results shown (2 entries):
PBRM1 (UniProt Q86U86)
inactive: erlotinib 0.185 | [10] 0.131 | [1] -0.062 | [2] 0.056 | [3] -0.076 | [4] -0.05 | IRAK-1-4 Inhibitor I -0.094 | ibrutinib 0.003 | [5] -0.004 | ralimetinib 0.001 | [6] 0.031 | [11] 0.033 | [7] -0.047 | [12] 0.027 | [16] 0.063 | [8] 0.072 | [9] -0.033

PCNX3 (UniProt Q9H6A9)
inactive: [13] -0.024 | [14] 0.06 | [1] 0.044 | [15] 0.027 | [3] -0.095 | [4] 0.07 | ibrutinib 0.008 | [5] -0.01 | [12] -0.218 | [16] -0.051 | [9] -0.049

The list goes on.

PEX10 isoform 2 (UniProt O60683)
inactive: [1] 0.002 | ibrutinib 0.173

PDP1 isoform 2 (UniProt Q9P0J1)
inactive: erlotinib 0.028 | [10] 0.141 | [2] 0.077 | [3] 0.176 | [4] 0.005 | IRAK-1-4 Inhibitor I 0.171 | ralimetinib -0.174 | [6] -0.239 | [11] 0.056 | [12] 0.079 | [8] -0.021

PCBP2 (UniProt F8VRH0)
inactive: erlotinib 0.084 | [10] -0.182 | [2] -0.092 | IRAK-1-4 Inhibitor I 0.11 | [5] -0.014 | ralimetinib 0.087 | [6] -0.033 | [11] 0.051 | [7] 0.129 | [16] 0.017 | [8] 0.012 | [9] 0.027

PCMTD1 (UniProt Q96MG8)
inactive: [13] -0.42 | [14] 0.13 | [15] 0.004 | [3] 0.02 | [4] -0.082

PEX5 (UniProt J3KPV0)
inactive: [13] 0.091 | [14] -0.28 | [2] -0.167 | [15] -0.18 | [3] -0.056 | [4] -0.016 | IRAK-1-4 Inhibitor I 0.001 | ralimetinib 0.306 | [6] -0.102 | [8] 0.009

PDIA4, A0A499FI48
inactive: [12] -0.017 | [16] -0.066

PGAP2 isoform 2 (UniProt Q9UHJ9)
inactive: [3] 0.118 | [4] -0.066

PCK1 (UniProt P35558)
inactive: [13] -0.07 | [14] -0.075 | [1] -0.06 | [15] -0.262 | ibrutinib 0 | [5] -0.074 | [9] -0.172
